## Library screening results

A: 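Assay on Mycobacterium tuberculosis, filed only as a heat shock assay from Cornell; the read-out is not stated. The concentration is filed as 10 mM, unlikely as a test dose, so the dose is not known. The record gives no direction; compounds that gave an IC50 in retests scored well above the rest, so higher reads as stronger inhibition. About 69,000 compounds were tested under these conditions; 1.4% (about 930) showed 50% or more at least once.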
B: 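Whole-cell assay for inhibitors of Mycobacterium tuberculosis growth, labelled Cornell in the record; the read-out is not stated. The concentration is filed as 10 mM, unlikely as a test dose, so the dose is not known. Higher means stronger inhibition (inferred from two other growth screens of the library). Of about 53,000 compounds tested this way, about 900 (1.7%) reached 50% or more in at least one test.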

Each number is a percent effect as filed. The controls that fix the scale are not given in the record; negative values are as filed. The compounds are a random part of those screened. A dash means the value is not listed here; it may have been measured.

| structure | A | B |
|---|---|---|
| `CNC(=O)[C@@H]1CN(C(=O)C(C)C)C[C@H]1c1ccnc(N2CCCC2)n1.Cl` | -15.28% | 37.07% |
| `CCc1noc(C)c1C(=O)N1CCC2(CCCN(CC(C)(C)C)C2=O)C1` (centres unmarked) | 9.145% | 15.28% |
| `Cc1nc(N(C)C)ncc1C(=O)NCCc1csc(-c2cnccn2)n1` | 32.86% | -50% |
| `CCOC(=O)NC1CCCN(c2cncc(Br)c2)C1` (centres unmarked) | 28.54% | - |
| `COc1ccc(Cn2c(C3CCNCC3)cc3cccnc32)cc1.Cl` | 2.964% | 35.62% |
| `O=C1CC(c2cccnc2)C2(CCN(C(=O)N3CCOCC3)CC2)N1` (centres unmarked) | -6.364% | 12.3% |
| `c1ccc(OCCN2CCC(n3cncn3)CC2)cc1` | -12.12% | -35.37% |
| `CC(NC(=O)NCCCn1ccnc1)c1ccc2c(c1)CCC(=O)N2` (centres unmarked) | -5.577% | -17.95% |
| `CCOc1cccc(C(C)NC(=O)N2CCC3(CC2)OCCO3)c1` (centres unmarked) | -6.398% | - |
| `CN(CC1CCCCO1)c1nc2c(cc1C(N)=O)CCC2` (centres unmarked) | -99.58% | - |
| `Cc1cc(NC2CC3(CCN(Cc4csc(C)n4)C3)C2)ncn1` (centres unmarked) | 3.783% | 2.152% |
| `CCN1CC(C(=O)NCCOc2ccc3c(c2)OCO3)CC1=O` (centres unmarked) | -3.706% | 1.209% |
| `CCOC(=O)CCC(=O)NC(C)c1ccc(NC(=O)CC)cc1` (centres unmarked) | -7.287% | 5.378% |
| `CC1C(=O)NCCN1CCOc1ccc(C#N)cc1` (centres unmarked) | -25.22% | -5.032% |
| `CNc1cncc(C2CCCN2S(=O)(=O)c2ccccc2)n1` (centres unmarked) | -16.46% | -21.72% |
| `CC1=C(C#N)C(=O)N(C)C(=O)/C1=C\C1=Cc2ccccc2OC1` | -26.04% | 8.963% |
| `CC1(C)CC(CC(=O)N2CC(C)(C)[C@@](C)(O)C2)CC(C)(C)N1` | -20.08% | - |
| `Cc1nc(C)n(CC2CCCN2CC(=O)NCCc2ccsc2)n1` (centres unmarked) | 6.222% | -3.614% |
| `Cc1ncc(CNC(=O)CCc2ccccc2F)c(C2CCCN2C)n1` (centres unmarked) | -8.989% | -9.08% |
| `O=C(O)C(=O)O.c1cnc(-c2noc(C3CN(Cc4ccsc4)C3)n2)cn1` | -0.772% | -2.586% |
| `Cc1nc(CNc2ccc(C(=O)NCc3ccco3)cc2C)no1` | 4.73% | 20.23% |
| `Cc1ccc(N2CCC3(CN(Cc4cccs4)CCC3(F)F)C2)nn1.O=C(O)C(F)(F)F` (centres unmarked) | 5.907% | 28.35% |
| `CC(C)c1cc(C(=O)NCCN2CCCCC2CO)on1` (centres unmarked) | 7.729% | 36.5% |
| `[H][C@]12CO[C@H](CNS(C)(=O)=O)[C@@]1([H])CCN(C(=O)c1cnoc1C)C2` | -9.259% | -18.02% |
| `O=C1OCCN1Cc1ccc(C(F)(F)F)cc1F` | -15.82% | 2.233% |
| `CC(C)[C@H]1CN(Cc2nccn2C)C[C@@H]1NC(=O)CCS(C)(=O)=O` | -14.47% | 6.783% |
| `Cc1nnc2ccc(N3CCC4(CCOC4)C3)nn12` (centres unmarked) | 0.8038% | 16.18% |
| `COC(=O)CNC(=O)CSCc1nc(O)c2c(C)c(C)sc2n1` | -2.361% | - |
| `Cc1c(CN2CCCCC2)c(O)n(CCCO)c(=O)c1C#N` | 0.1297% | -50.26% |
| `Cc1ccc(OCCN(C)Cc2ccc(S(=O)(=O)N(C)C)o2)cc1` | 1.658% | 20.83% |
| `CC(=O)NCc1nnn2c1CN(c1ncccn1)CCC2` | 15.16% | -1.806% |
| `COCCC(=O)N1CCN(CC2CC2)c2ncccc2C1` | -9.836% | -15.4% |
| `CCC(NS(=O)(=O)N1CCOCC1)c1ccccc1OC` (centres unmarked) | -3.47% | 13.22% |
| `Cc1nc(N2CCOCC2)sc1C(=O)NCC(C)(C)N1CCCCC1` | -9.981% | 6.114% |
| `CCOc1ccc(CNC2CCCN(c3cccnn3)C2)cc1OC` (centres unmarked) | 7.221% | - |
| `CCCN(CC)Cc1ccc(C(=O)NCC2COCCO2)c(=O)[nH]1` (centres unmarked) | -7.11% | 14.52% |
| `Cn1nc(C(=O)NCc2ccccn2)c2c1CCS(=O)(=O)C2` | -0.1725% | - |
| `COCc1ncc(CN2CCN(C)C(=O)C2C)cn1` (centres unmarked) | 1.35% | 39.49% |
| `Cc1nn(C)c(Cl)c1C1CCCN1C(=O)c1ccnn1C` (centres unmarked) | -12.13% | -0.9795% |
| `CCOc1ccc(C(=O)N2CCCC(n3ccnc3C)C2)cc1OC` (centres unmarked) | 2.204% | - |
| `CCn1ccnc1CN1CCNCC1C.Cl.Cl` (centres unmarked) | -35.48% | -10.94% |
| `NS(=O)(=O)CCNC(=O)C1(c2ccc(Br)cc2)CC1` | 20.84% | -42.46% |
| `Cc1cc(CN2CCOC(CNc3cccnn3)C2)no1` (centres unmarked) | 39.88% | - |
| `CC(C)N(CCCNC(=O)C1CC(=O)N(C)C1)S(C)(=O)=O` (centres unmarked) | -2.124% | -23.32% |
| `O=C(CN1CC(c2ccccc2)CC1=O)N1CCC(c2ncc[nH]2)CC1` (centres unmarked) | -12% | 2.47% |
| `NC(=O)C1CCCN1C(=O)c1cc(C2CC2)nc2ccc(F)cc12` (centres unmarked) | -25.02% | -27.79% |
| `COc1ccc(Cl)cc1NC(=O)N1CCc2nc(NC(C)=O)sc2C1` | 9.726% | 0% |
| `CCCC(C)NC(=O)CCN1C(=O)CCc2cc(F)ccc21` (centres unmarked) | -28.04% | 21.92% |
| `CS(=O)(=O)N1CCC(NC(=O)COc2ccc(Cl)c(Cl)c2)CC1` | 16.59% | 21.32% |
| `COc1ccc(-c2ccnc(N)c2)c(OC)c1` | 2.353% | -25.37% |
| `O=C(C1CCCN(Cc2ccccc2)C1)N1CCc2sccc2C1` (centres unmarked) | 21.52% | -7.321% |
| `Cc1nc(CNC(=O)NC(C)c2ccc3c(c2)OCCO3)cs1` (centres unmarked) | -13.07% | -86.18% |

Repeated from the top, 5 entries:

| structure | A | B |
|---|---|---|
| `CNC(=O)[C@@H]1CN(C(=O)C(C)C)C[C@H]1c1ccnc(N2CCCC2)n1.Cl` | -15.28% | 37.07% |
| `CCc1noc(C)c1C(=O)N1CCC2(CCCN(CC(C)(C)C)C2=O)C1` (centres unmarked) | 9.145% | 15.28% |
| `Cc1nc(N(C)C)ncc1C(=O)NCCc1csc(-c2cnccn2)n1` | 32.86% | -50% |
| `CCOC(=O)NC1CCCN(c2cncc(Br)c2)C1` (centres unmarked) | 28.54% | - |
| `COc1ccc(Cn2c(C3CCNCC3)cc3cccnc32)cc1.Cl` | 2.964% | 35.62% |

Data taken from ChEMBL document CHEMBL3988442, “University of Dundee, Small-Polar-MMV Screening Library” (2021).